Data on 26 molecules can be found in PubChem BioAssay AID328 (DTP/NCI, 2004).

The list is a part of this screen's results and no random one: it gathers tests that were run many times, whatever their T/C, doses with no T/C, and many T/C values between a quarter and a half above the control. Other doses and runs of a compound stand elsewhere. T/C gives the treated animals as a percentage of the vehicle group. Some entries give survivors of the animals treated and no T/C: the source files T/C as zero there, which appears to mark a toxic dose or a test without result, not a measured value. Some doses without a T/C left all or most animals alive at the check, yet need not have been tolerated: the source hardly ever lists a survival T/C far under the control, and the zero likely stands for such cases as well. Survivors were counted at the toxicity check, usually on the fifth day, unless a day is given; later deaths do not show. Schedules are NCI's codes, taken here to give the interval after Q, in days (D) or hours (H), and the number of doses after X. Some entries were tested several times; their values stand side by side, smallest first. For survival time, this PubChem deposit counts one and a half times the control or more as active, and values a quarter to a half above the control carry no call in these data; other NCI protocols may use other cut-offs. Signs of the kind (2×) stand for listed records that agree. Some T/C values carry the count of animals alive at the toxicity check (mostly the fifth day); where none is given, no animal had died by that day.

This assay has as its system BDF1 mice, P388 leukemia ip, median survival T/C. Nature of the assay: NCI In Vivo Anticancer Drug Screen. Data for tumor model P388 Leukemia (intraperitoneal) in B6D2F1 (BDF1) mice. As to conditions: T/C endpoint: median survival time, higher T/C = longer survival. In outline:
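Mice carrying the transplantable tumour receive compound or vehicle. Survival is followed in each arm, and the treated measure is divided by the vehicle measure.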

[1] abbreviates: dose: 400.0 mg/kg/injection, schedule: Q04DX003 (ip), vehicle: Klucel (hydroxypropylcellulose) (HPC).
The mark [2] stands for this setting: dose: 50.0 mg/kg/injection, schedule: Q01DX009 (ip), vehicle: saline with Tween-80.
[3] abbreviates: dose: 200.0 mg/kg/injection, schedule: Q01DX009 (ip), vehicle: saline with Tween-80.
[4] abbreviates: dose: 100.0 mg/kg/injection, schedule: Q01DX009 (ip), vehicle: saline with Tween-80.
Setting [5] is: dose: 200.0 mg/kg/injection, schedule: Q04DX003 (ip), vehicle: saline with Tween-80.
Setting [6] is: dose: 6.25 mg/kg/injection, schedule: Q01DX009 (ip), vehicle: saline with Tween-80.
Where [7] appears, read: dose: 12.5 mg/kg/injection, schedule: Q01DX009 (ip), vehicle: saline with Tween-80.
Where [8] appears, read: dose: 400.0 mg/kg/injection, schedule: Q01DX009 (ip), vehicle: saline with Tween-80.
[9] abbreviates: dose: 25.0 mg/kg/injection, schedule: Q04DX003 (ip), vehicle: saline.

Turning to `COc1cc(C=Nc2cccc(F)c2)ccc1N(CCCl)CCCl`, the survivor count by setting is: (dose: 25.0 mg/kg/injection, schedule: Q01DX009 (ip), vehicle: other) 6 of 6; (dose: 50.0 mg/kg/injection, schedule: Q01DX009 (ip), vehicle: other) 0 of 6; (dose: 100.0 mg/kg/injection, schedule: Q01DX009 (ip), vehicle: other) 0 of 6.

Regarding `OC12C3CCCC1CCCC2CCC3` (stereo unspecified), the survivor count is, setting by setting: (dose: 100.0 mg/kg/injection, schedule: Q04DX003 (ip), vehicle: saline sonified) 6 of 6; under setting [1], 6 of 6.

As to `CC1CN1P(=O)(N1CC2CCC(CC2)C1)N1CC1C` (stereo unspecified), the T/C under setting [2] is 145 % of control and the T/C (dose: 75.0 mg/kg/injection, schedule: Q01DX009 (ip), vehicle: saline with Tween-80) was 127 % of control. The survivor count under setting [3] is 6 of 6.

Consider `COC1CC(C)C(OC)C2=CC(=O)C=C(NC(=O)/C(C)=C/C=C\C(C)C(OC(N)=O)/C(C)=C\C(C)C1OC)C2=O` (stereo unspecified), for which, under “dose: 2.5 mg/kg/injection, schedule: Q01DX009 (ip), vehicle: saline + alcohol”, the T/C is 140 % of control. The survivor count (dose: 20.0 mg/kg/injection, schedule: Q01DX009 (ip), vehicle: saline + alcohol) is on record as 4 of 6.

As to `C1=CN(c2ccc(/C=C\c3ccnc4ccccc34)cc2)C=CN1c1ccc(/C=C\c2ccnc3ccccc23)cc1`, the T/C by setting is: under setting [4], 130 % of control [5 of 6 alive]; under setting [3], 140 % of control.

With `CCC1C/C(=C\NC(N)=O)C(=O)O1` (stereo unspecified), the survivor count by setting is: (dose: 100.0 mg/kg/injection, schedule: Q04DX003 (ip), vehicle: saline with Tween-80) 6 of 6; under setting [5], 5 of 6.

Take `Cc1cc(=O)c2c(C)cccc2[nH]1`: the T/C is 136 % of control under setting [6] and 136 % of control under setting [7].

Take `CC1(C)OCC(C2OC3OC(C)(C)OC3C2OP(=O)(N2CC2)N2CC2)O1` (stereo unspecified): the survivor count under setting [8] is given as 0 of 6.

For `CC(C)COC(=O)C1(N)CCCC1`, the T/C under setting [4] is 125 % of control (2×).

On to `CC(CN)OCc1ccccc1` (stereo unspecified), for which the survivor count under setting [9] is reported as 6 of 6.

For `CCC[CH2][Sn]1([CH2]CCC)[O]OC(c2ccc(C)cc2)[O]1` (stereo unspecified), the T/C runs as follows: (dose: 0.75 mg/kg/injection, schedule: Q01DX009 (ip), vehicle: saline with Tween-80) 126 % of control; (dose: 3.5 mg/kg/injection, schedule: Q01DX009 (ip), vehicle: saline with Tween-80) 130 % of control. In addition, the survivor count reads like this: (dose: 3.0 mg/kg/injection, schedule: Q01DX009 (ip), vehicle: saline with Tween-80) 6 of 6; under setting [6], 3 of 6; (dose: 8.0 mg/kg/injection, schedule: Q01DX009 (ip), vehicle: saline with Tween-80) 4 of 6; (dose: 12.0 mg/kg/injection, schedule: Q01DX009 (ip), vehicle: saline with Tween-80) 1 of 6; under setting [7], 0 of 6; (dose: 25.0 mg/kg/injection, schedule: Q01DX009 (ip), vehicle: saline with Tween-80) 0 of 6.

Take `O=c1cc(-c2cccs2)ss1`: the survivor count is, setting by setting: under setting [3], 6 of 6; (dose: 300.0 mg/kg/injection, schedule: Q01DX009 (ip), vehicle: saline with Tween-80) 6 of 6; under setting [8], 2 of 6; (dose: 400.0 mg/kg/injection, schedule: Q04DX003 (ip), vehicle: saline with Tween-80) 3 of 6.

Regarding `OCc1cccc(F)c1`, under “dose: 400.0 mg/kg/injection, schedule: Q01DX009 (ip), vehicle: saline”, the survivor count is on record as 5 of 6.

Regarding `COc1ccc(N=O)c(O)c1`, for the setting “dose: 100.0 mg/kg/injection, schedule: Q01DX010 (ip), vehicle: carboxymethylcellulose (CMC)”, the T/C is 145 % of control. In addition, the survivor count (dose: 200.0 mg/kg/injection, schedule: Q01DX009 (ip), vehicle: Klucel (hydroxypropylcellulose) (HPC)) was 1 of 6 and 2 of 6; the survivor count (dose: 200.0 mg/kg/injection, schedule: Q01DX010 (ip), vehicle: carboxymethylcellulose (CMC)) is 0 of 6; the survivor count (dose: 200.0 mg/kg/injection, schedule: Q04DX003 (ip), vehicle: Klucel (hydroxypropylcellulose) (HPC)) is 4 of 6.

As for `Cc1c(N)nc(C(CC(N)=O)NCC(N)C(N)=O)nc1C(=O)NC(C(=O)NC(C)C(O)C(C)C(=O)NC(C(=O)NCCc1nc(-c2nc(C(=O)NCCC[S+](C)C)cs2)cs1)C(C)O)C(OC1OC(CO)C(O)C(O)C1OC1OC(CO)C(O)C(OC(N)=O)C1O)c1cnc[nH]1` (stereo unspecified), the T/C is 127 and 136 % of control (dose: 2.0 mg/kg/injection, schedule: Q01DX009 (ip), vehicle: saline); 130, 136, 145 % of control (dose: 4.0 mg/kg/injection, schedule: Q01DX009 (ip), vehicle: saline); 134 and 136 % of control (dose: 8.0 mg/kg/injection, schedule: Q01DX009 (ip), vehicle: saline).

On to `CSC(=S)N/N=C(\C)C1CCCC[N-]1.[Cl][Zn][Cl]` (stereo unspecified), for which the survivor count by setting is: under setting [2], 6 of 6; under setting [4], 5 of 6; under setting [3], 0 of 6.

Turning to `BrCC(Br)CBr`, the survivor count under setting [3] is recorded as 5 of 6.

As to `O=C(c1ccccc1Br)C(Br)C(Br)c1ccccc1` (stereo unspecified), the T/C under setting [1] was 135 % of control.

In the case of `Nc1nc(-c2cccnc2)cc2ccccc12`, the survivor count (dose: 50.0 mg/kg/injection, schedule: Q04DX003 (ip), vehicle: saline with Tween-80) is 1 of 6.

Regarding `O=C(CBr)c1ccc(/C=C/c2ccc(Cl)cc2)cc1`, the survivor count under setting [3] is reported as 0 of 6 and the survivor count under setting [5] is recorded as 2 of 6.

For the molecule `CN(C)N=Nc1ccc(-c2ccccc2)cc1`, the T/C under setting [2] is 127 % of control. In addition, the survivor count is 5 of 6 under setting [4] and 0 of 6 under setting [3].

Turning to `CS(=O)CC(O)(c1ccc(F)cc1)C1CC1` (stereo unspecified), the survivor count under setting [3] was 3 of 6.

In the case of `O=c1nc(Oc2ccccc2)nc2cnccn12`, the survivor count under setting [3] is 2 of 6.

In the case of `CC(=O)NCCSC(=O)C(=O)SCCNC(C)=O`, the survivor count (dose: 300.0 mg/kg/injection, schedule: Q01DX009 (ip), vehicle: Klucel (hydroxypropylcellulose) (HPC)) is on record as 2 of 6.

As to `CC[Se](CC)CC.CC[Se](CC)CC.C[CH2][Ge]([CH2]C)[O][Ge]([CH2]C)[CH2]C`, the survivor count was 6 of 6 under setting [2] and 5 of 6 under setting [3].

Regarding `O=C(/C=C/c1ccccc1)N1CCOCC1`, the survivor count under setting [9] is recorded as 6 of 6.
